Reference: article PMC7593971
Read-outs that look alike come from different tables or passages of the source. Results are given in words; binding and its absence hold for the method and conditions named. Binding seen in cells or lysates may run through a third protein. Binding can be weak; no strength is given.

Experiments:
Test in all cases: co-IP; GFP trap slurry (Chromotek) incubated 2 h at 4°C with the supernatant of S. pneumoniae cells lysed in buffer B (0.1 M Tris-HCl pH 7.5, 100 mM NaCl, 1 mM EDTA, 1 mM DTT, 5% digitonin); washed three times with buffer C (150 mM NaCl, 0.05% digitonin); eluate immunoblotted with anti-Flag, anti-PBP1a or anti-PBP1b antibody
[1] = molecular target: GFP-CozEa (GFP-labeled CozEa) (Streptococcus pneumoniae) (UniProt Q8DQ98)
[2] = molecular target: GFP-CozEb (CozEb fused to green fluorescent protein) (Streptococcus pneumoniae) (UniProt Q8DP46)
[3] = molecular target: GFP-CozEa (GFP-labeled CozEa) (Streptococcus pneumoniae) (UniProt Q8DQ98); remark: listed apart in the source
[4] = molecular target: GFP-CozEb (CozEb fused to green fluorescent protein) (Streptococcus pneumoniae) (UniProt Q8DP46); remark: listed apart in the source

Molecule: PBP1b (penicillin-binding protein 1b) (from UniProt Q7CRA4 1-821)
- binding [1]: binds weakly
- binding [2]: binds weakly

Molecule: Flag-CozEa (CozEa fused to a Flag-tag) (from UniProt Q8DQ98)
- binding [2]: binds

B1: PBP1a (penicillin-binding protein 1a) (protein, UniProt Q8DR59 1-719)
chain: MNKPTILRLIKYLSISFLSLVIAAIVLGGGVFFYYVSKAPSLSESKLVATTSSKIYDNKNQLIADLGSERRVNAQANDIPTDLVKAIVSIEDHRFFDHRGIDTIRILGAFLRNLQSNSLQGGSALTQQLIKLTYFSTSTSDQTISRKAQEAWLAIQLEQKATKQEILTYYINKVYMSNGNYGMQTAAQNYYGKDLNNLSLPQLALLAGMPQAPNQYDPYSHPEAAQDRRNLVLSEMKNQGYISAEQYEKAVNTPITDGLQSLKSASNYPAYMDNYLKEVINQVEEETGYNLLTTGMDVYTNVDQEAQKHLWDIYNTDEYVAYPDDELQVASTIVDVSNGKVIAQLGARHQSSNVSFGINQAVETNRDWGSTMKPITDYAPALEYGVYESTATIVHDEPYNYPGTNTPVYNWDRGYFGNITLQYALQQSRNVPAVETLNKVGLNRAKTFLNGLGIDYPSIHYSNAISSNTTESDKKYGASSEKMAAAYAAFANGGTYYKPMYIHKVVFSDGSEKEFSNVGTRAMKETTAYMMTDMMKTVLSYGTGRNAYLAWLPQAGKTGTSNYTDEEIENHIKTSQFVAPDELFAGYTRKYSMAVWTGYSNRLTPLVGNGLTVAAKVYRSMMTYLSEGSNPEDWNIPEGLYRNGEFVFKNGARSTWSSPAPQQPPSTESSSSSSDSSTSQSSSTTPSTNNSTTTNPNNNTQQSNTTPDQQNQNPQPAQP
- binding [3]: binds
- binding [4]: binds
